# The supplement of paper PMC8728848
# Some of the results follow.
# B1: XTP3-B-MRH2 (Homo sapiens), Q96DZ1 (protein)
# chain: EFLSGSYCFRGGVGWWKYEFCYGKHVHQYHEDKDSGKTSVVVGTWNQEEHIEWAKKNTARAYHLQDDGTQTVRMVSHFYGNGDICDITDKPRQVTVKLKCKESDSPHAVTVYMLEPHSCQYILGVESPVICKILDTA
# Tests used:
# Test in all cases: glycan array binding signal (z-score within array); higher = stronger binding
# Conditions in all cases: glycan notation: IUPAC condensed, linker removed
# [1] = molecular target: GlcNAc(b1-4)GlcNAc(b1-4)GlcNAc(b1-4)GlcNAc(b1-4)GlcNAc
# How it was run: (§1)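 Negative Z-scores can be read as non-binding. The Z-score is calculated within each array and then averaged across arrays of one protein sequence at different concentrations or buffers and across linkers. Arrays, 3228 in all, were curated from the Consortium for Functional Glycomics database and kept only where the protein sequence was available.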
# [2] = molecular target: GlcNAc(b1-4)GlcNAc(b1-4)GlcNAc(b1-4)GlcNAc(b1-4)GlcNAc(b1-4)GlcNAc
# How it was run: as §1
# [3] = molecular target: GlcNAc(b1-4)[GlcNAc(b1-6)]GalNAc
# How it was run: as §1
# [4] = molecular target: GlcNAc(b1-6)Gal(b1-4)GlcNAc
# How it was run: as §1
# GlcNAc(b1-6)GalNAc = molecular target: GlcNAc(b1-6)GalNAc
# How it was run: as §1
# [5] = molecular target: GlcNAc6S(b1-3)Gal(b1-4)GlcNAc
# How it was run: as §1
# Kdn(a2-3)Gal(b1-3)GalNAc = molecular target: Kdn(a2-3)Gal(b1-3)GalNAc
# How it was run: as §1
# Kdn(a2-3)Gal(b1-3)GlcNAc = molecular target: Kdn(a2-3)Gal(b1-3)GlcNAc
# How it was run: as §1
# Kdn(a2-3)Gal(b1-4)Glc = molecular target: Kdn(a2-3)Gal(b1-4)Glc
# How it was run: as §1
# Kdn(a2-3)Gal(b1-4)GlcNAc = molecular target: Kdn(a2-3)Gal(b1-4)GlcNAc
# How it was run: as §1
# [6] = molecular target: Kdn(a2-3)Gal(b1-4)[Fuc(a1-3)]GlcNAc
# How it was run: as §1
# Kdn(a2-6)Gal(b1-4)GlcNAc = molecular target: Kdn(a2-6)Gal(b1-4)GlcNAc
# How it was run: as §1
# [7] = molecular target: Man(a1-2)Man(a1-2)Man(a1-3)Man
# How it was run: as §1
# [8] = molecular target: Man(a1-2)Man(a1-2)Man(a1-6)[Man(a1-3)]Man
# How it was run: as §1
# Man(a1-2)Man(a1-3)Man = molecular target: Man(a1-2)Man(a1-3)Man
# How it was run: as §1
# [9] = molecular target: Man(a1-2)Man(a1-3)[Man(a1-2)Man(a1-6)]Man
# How it was run: as §1
# [10] = molecular target: Man(a1-2)Man(a1-3)[Man(a1-2)Man(a1-6)]Man(a1-6)[Man(a1-2)Man(a1-2)Man(a1-3)]Man
# How it was run: as §1
# [11] = molecular target: Man(a1-2)Man(a1-3)[Man(a1-2)Man(a1-6)]Man(a1-6)[Man(a1-2)Man(a1-2)Man(a1-3)]Man(b1-4)GlcNAc(b1-4)GlcNAc
# How it was run: as §1
# [12] = molecular target: Man(a1-2)Man(a1-3)[Man(a1-6)]Man(a1-6)[Man(a1-2)Man(a1-3)]Man(b1-4)GlcNAc(b1-4)GlcNAc
# How it was run: as §1
# [13] = molecular target: Man(a1-2)Man(a1-6)[Man(a1-3)]Man(a1-6)[Man(a1-2)Man(a1-2)Man(a1-3)]Man
# How it was run: as §1
# [14] = molecular target: Man(a1-2)Man(a1-6)[Man(a1-3)]Man(a1-6)[Man(a1-2)Man(a1-2)Man(a1-3)]Man(b1-4)GlcNAc(b1-4)GlcNAc
# How it was run: as §1
# Man(a1-3)[Man(a1-6)]Man = molecular target: Man(a1-3)[Man(a1-6)]Man
# How it was run: as §1
# [15] = molecular target: Man(a1-3)[Man(a1-6)]Man(a1-6)[Man(a1-2)Man(a1-3)]Man(b1-4)GlcNAc(b1-4)GlcNAc
# How it was run: as §1
# [16] = molecular target: Man(a1-3)[Man(a1-6)]Man(a1-6)[Man(a1-3)]Man
# How it was run: as §1
# [17] = molecular target: Man(a1-3)[Man(a1-6)]Man(a1-6)[Man(a1-3)]Man(b1-4)GlcNAc(b1-4)GlcNAc
# How it was run: as §1
# [18] = molecular target: Man(a1-3)[Man(a1-6)]Man(b1-4)GlcNAc(b1-4)GlcNAc
# How it was run: as §1
# [19] = molecular target: Man(a1-3)[Man(a1-6)]Man(b1-4)GlcNAc(b1-4)[Fuc(a1-6)]GlcNAc
# How it was run: as §1
# Man(a1-6)Man = molecular target: Man(a1-6)Man
# How it was run: as §1
# Man(b1-4)GlcNAc = molecular target: Man(b1-4)GlcNAc
# How it was run: as §1
# MurNAc(b1-4)GlcNAc = molecular target: MurNAc(b1-4)GlcNAc
# How it was run: as §1
# Neu5Ac(a2-3)Gal = molecular target: Neu5Ac(a2-3)Gal
# How it was run: as §1
# [20] = molecular target: Neu5Ac(a2-3)Gal(b1-3)GalNAc
# How it was run: as §1
# [21] = molecular target: Neu5Ac(a2-3)Gal(b1-3)GalNAc(b1-3)Gal(a1-4)Gal(b1-4)Glc
# How it was run: as §1
# [22] = molecular target: Neu5Ac(a2-3)Gal(b1-3)GalNAc(b1-4)Gal(b1-4)Glc
# How it was run: as §1
# [23] = molecular target: Neu5Ac(a2-3)Gal(b1-3)GalNAc(b1-4)[Neu5Ac(a2-3)]Gal(b1-4)Glc
# How it was run: as §1
# [24] = molecular target: Neu5Ac(a2-3)Gal(b1-3)GalNAc(b1-4)[Neu5Ac(a2-8)Neu5Ac(a2-3)]Gal(b1-4)Glc
# How it was run: as §1
# [25] = molecular target: Neu5Ac(a2-3)Gal(b1-3)GalNAc6S
# How it was run: as §1
# [26] = molecular target: Neu5Ac(a2-3)Gal(b1-3)GlcNAc
# How it was run: as §1
# [27] = molecular target: Neu5Ac(a2-3)Gal(b1-3)GlcNAc(b1-2)Man
# How it was run: as §1
# [28] = molecular target: Neu5Ac(a2-3)Gal(b1-3)GlcNAc(b1-2)Man(a1-3)[GlcNAc(b1-4)][Neu5Ac(a2-3)Gal(b1-3)GlcNAc(b1-2)Man(a1-6)]Man(b1-4)GlcNAc(b1-4)GlcNAc
# How it was run: as §1
# [29] = molecular target: Neu5Ac(a2-3)Gal(b1-3)GlcNAc(b1-2)Man(a1-3)[Neu5Ac(a2-3)Gal(b1-3)GlcNAc(b1-2)Man(a1-6)]Man(b1-4)GlcNAc(b1-4)GlcNAc
# How it was run: as §1
# [30] = molecular target: Neu5Ac(a2-3)Gal(b1-3)GlcNAc(b1-2)[Neu5Ac(a2-3)Gal(b1-3)GlcNAc(b1-4)]Man(a1-6)[Neu5Ac(a2-3)Gal(b1-3)GlcNAc(b1-2)Man(a1-3)]Man(b1-4)GlcNAc(b1-4)GlcNAc
# How it was run: as §1
# [31] = molecular target: Neu5Ac(a2-3)Gal(b1-3)GlcNAc(b1-3)Gal(b1-3)GlcNAc
# How it was run: as §1
# [32] = molecular target: Neu5Ac(a2-3)Gal(b1-3)GlcNAc(b1-3)Gal(b1-4)GlcNAc
# How it was run: as §1
# [33] = molecular target: Neu5Ac(a2-3)Gal(b1-3)GlcNAc(b1-3)GalNAc
# How it was run: as §1
binder,measurement,setting,value
B1,glycan array binding signal (z-score),[1],0.528
same,glycan array binding signal (z-score),[2],-0.1
same,glycan array binding signal (z-score),[3],-1.48
same,glycan array binding signal (z-score),[4],0.376
same,glycan array binding signal (z-score),GlcNAc(b1-6)GalNAc,0.959
same,glycan array binding signal (z-score),[5],-0.257
same,glycan array binding signal (z-score),Kdn(a2-3)Gal(b1-3)GalNAc,-0.139
same,glycan array binding signal (z-score),Kdn(a2-3)Gal(b1-3)GlcNAc,0.111
same,glycan array binding signal (z-score),Kdn(a2-3)Gal(b1-4)Glc,1.3
same,glycan array binding signal (z-score),Kdn(a2-3)Gal(b1-4)GlcNAc,1.28
same,glycan array binding signal (z-score),[6],-0.353
same,glycan array binding signal (z-score),Kdn(a2-6)Gal(b1-4)GlcNAc,-1.59
same,glycan array binding signal (z-score),[7],-0.517
same,glycan array binding signal (z-score),[8],-0.173
same,glycan array binding signal (z-score),Man(a1-2)Man(a1-3)Man,0.577
same,glycan array binding signal (z-score),[9],0.743
same,glycan array binding signal (z-score),[10],0.213
same,glycan array binding signal (z-score),[11],-0.61
same,glycan array binding signal (z-score),[12],-1.13
same,glycan array binding signal (z-score),[13],-0.456
same,glycan array binding signal (z-score),[14],-0.65
same,glycan array binding signal (z-score),Man(a1-3)[Man(a1-6)]Man,-0.196
same,glycan array binding signal (z-score),[15],0.608
same,glycan array binding signal (z-score),[16],0.221
same,glycan array binding signal (z-score),[17],1.3
same,glycan array binding signal (z-score),[18],0.243
same,glycan array binding signal (z-score),[19],-0.07
same,glycan array binding signal (z-score),Man(a1-6)Man,-1.23
same,glycan array binding signal (z-score),Man(b1-4)GlcNAc,0.102
same,glycan array binding signal (z-score),MurNAc(b1-4)GlcNAc,-0.655
same,glycan array binding signal (z-score),Neu5Ac(a2-3)Gal,-0.349
same,glycan array binding signal (z-score),[20],0.553
same,glycan array binding signal (z-score),[21],0.229
same,glycan array binding signal (z-score),[22],-0.15
same,glycan array binding signal (z-score),[23],-0.211
same,glycan array binding signal (z-score),[24],-0.195
same,glycan array binding signal (z-score),[25],-0.933
same,glycan array binding signal (z-score),[26],-0.922
same,glycan array binding signal (z-score),[27],-0.328
same,glycan array binding signal (z-score),[28],-0.001
same,glycan array binding signal (z-score),[29],1.01
same,glycan array binding signal (z-score),[30],0.771
same,glycan array binding signal (z-score),[31],-1.1
same,glycan array binding signal (z-score),[32],-0.591
same,glycan array binding signal (z-score),[33],-1.17

# Part of the list above, reformatted:
binder	measurement	setting	value
B1	glycan array binding signal (z-score)	[5]	-0.257
same	glycan array binding signal (z-score)	MurNAc(b1-4)GlcNAc	-0.655
same	glycan array binding signal (z-score)	[20]	0.553
